This is one part of the list.
Legend:
Test in all cases: log2 fold change, soluble protein after heating vs DMSO (PISA); higher = thermal stabilisation; K562 cells, 10 uM, 30 min; active = over 0.2 and 3.5 SD of the protein, either way, in both replicates (recomputed)
bafetinib = compound: Cc1ccc(NC(=O)c2ccc(CN3CC[C@H](N(C)C)C3)c(C(F)(F)F)c2)cc1Nc1nccc(-c2cncnc2)n1 [bafetinib]
Summary of the method: (§1)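 K562 cells (2×10^6 cells/mL) were treated with 10 μM compound for 30 min, and aliquots were heated for 3 min over 48°C-58°C. Pooled aliquots were extracted in PBS with 0.5% NP-40 at 4°C, and the supernatant after 21,000xg for 90 min was measured by TMTpro 16plex LC-MS/MS with channel sums equalised. Reported thermal stability, relative to control samples and from duplicates, is a log2 fold change.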

Amino acid sequences for entries named in this document (tags omitted). A change or cut given only in a name is not applied to a line headed by its entry.
UniProt Q00537: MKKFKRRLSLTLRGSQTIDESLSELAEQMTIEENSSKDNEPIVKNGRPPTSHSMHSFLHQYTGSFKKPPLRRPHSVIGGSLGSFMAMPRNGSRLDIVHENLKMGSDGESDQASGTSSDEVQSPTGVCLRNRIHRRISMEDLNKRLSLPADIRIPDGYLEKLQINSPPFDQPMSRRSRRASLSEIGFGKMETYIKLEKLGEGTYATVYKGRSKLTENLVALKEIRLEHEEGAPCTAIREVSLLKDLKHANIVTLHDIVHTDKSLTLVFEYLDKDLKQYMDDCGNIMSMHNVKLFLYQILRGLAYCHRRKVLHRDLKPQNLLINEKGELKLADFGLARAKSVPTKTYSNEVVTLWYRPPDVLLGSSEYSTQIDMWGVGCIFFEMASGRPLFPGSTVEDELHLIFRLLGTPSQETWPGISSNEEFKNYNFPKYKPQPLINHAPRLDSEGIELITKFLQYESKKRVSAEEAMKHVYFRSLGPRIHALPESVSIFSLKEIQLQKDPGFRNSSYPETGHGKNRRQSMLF
UniProt O75956: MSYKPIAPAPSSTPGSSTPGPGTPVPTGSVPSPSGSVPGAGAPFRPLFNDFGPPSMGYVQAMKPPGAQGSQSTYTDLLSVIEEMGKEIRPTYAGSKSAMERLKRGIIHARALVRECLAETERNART
UniProt P11802: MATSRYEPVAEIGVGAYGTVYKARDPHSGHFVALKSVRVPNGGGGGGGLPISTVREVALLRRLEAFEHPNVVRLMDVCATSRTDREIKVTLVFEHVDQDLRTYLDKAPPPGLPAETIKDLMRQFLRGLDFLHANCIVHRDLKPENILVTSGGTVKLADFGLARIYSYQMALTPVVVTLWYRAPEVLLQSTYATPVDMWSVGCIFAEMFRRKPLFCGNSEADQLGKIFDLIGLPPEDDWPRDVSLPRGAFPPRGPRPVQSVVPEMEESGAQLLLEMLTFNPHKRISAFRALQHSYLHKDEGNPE
UniProt O14613: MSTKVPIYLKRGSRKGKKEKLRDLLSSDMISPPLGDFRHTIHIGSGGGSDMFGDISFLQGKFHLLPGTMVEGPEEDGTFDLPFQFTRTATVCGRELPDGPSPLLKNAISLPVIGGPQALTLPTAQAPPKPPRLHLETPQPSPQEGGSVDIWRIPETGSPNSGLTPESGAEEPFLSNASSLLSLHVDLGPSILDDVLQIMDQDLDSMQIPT
UniProt Q9BU64: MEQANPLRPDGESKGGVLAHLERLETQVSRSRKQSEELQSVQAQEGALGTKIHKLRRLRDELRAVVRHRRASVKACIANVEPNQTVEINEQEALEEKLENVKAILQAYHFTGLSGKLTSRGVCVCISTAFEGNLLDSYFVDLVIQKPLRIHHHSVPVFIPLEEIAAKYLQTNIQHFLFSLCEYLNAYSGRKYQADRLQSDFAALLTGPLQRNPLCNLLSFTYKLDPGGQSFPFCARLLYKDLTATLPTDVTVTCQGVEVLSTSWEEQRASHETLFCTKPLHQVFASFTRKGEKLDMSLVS
UniProt P49336: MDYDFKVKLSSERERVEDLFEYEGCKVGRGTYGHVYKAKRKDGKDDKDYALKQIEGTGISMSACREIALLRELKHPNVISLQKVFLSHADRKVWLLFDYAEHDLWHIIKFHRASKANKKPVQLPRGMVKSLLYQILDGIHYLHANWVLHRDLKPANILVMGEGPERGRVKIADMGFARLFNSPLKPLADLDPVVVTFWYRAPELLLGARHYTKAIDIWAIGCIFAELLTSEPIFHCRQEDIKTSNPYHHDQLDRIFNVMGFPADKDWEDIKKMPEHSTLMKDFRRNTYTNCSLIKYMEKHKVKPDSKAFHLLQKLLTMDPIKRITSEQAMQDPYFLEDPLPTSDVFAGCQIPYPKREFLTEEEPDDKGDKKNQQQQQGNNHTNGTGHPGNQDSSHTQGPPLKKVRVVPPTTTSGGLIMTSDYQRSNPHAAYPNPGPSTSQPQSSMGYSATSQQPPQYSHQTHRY
UniProt Q9NRR8: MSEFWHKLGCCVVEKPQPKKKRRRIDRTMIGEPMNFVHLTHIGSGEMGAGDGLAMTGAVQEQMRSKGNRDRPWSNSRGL
UniProt Q711Q0: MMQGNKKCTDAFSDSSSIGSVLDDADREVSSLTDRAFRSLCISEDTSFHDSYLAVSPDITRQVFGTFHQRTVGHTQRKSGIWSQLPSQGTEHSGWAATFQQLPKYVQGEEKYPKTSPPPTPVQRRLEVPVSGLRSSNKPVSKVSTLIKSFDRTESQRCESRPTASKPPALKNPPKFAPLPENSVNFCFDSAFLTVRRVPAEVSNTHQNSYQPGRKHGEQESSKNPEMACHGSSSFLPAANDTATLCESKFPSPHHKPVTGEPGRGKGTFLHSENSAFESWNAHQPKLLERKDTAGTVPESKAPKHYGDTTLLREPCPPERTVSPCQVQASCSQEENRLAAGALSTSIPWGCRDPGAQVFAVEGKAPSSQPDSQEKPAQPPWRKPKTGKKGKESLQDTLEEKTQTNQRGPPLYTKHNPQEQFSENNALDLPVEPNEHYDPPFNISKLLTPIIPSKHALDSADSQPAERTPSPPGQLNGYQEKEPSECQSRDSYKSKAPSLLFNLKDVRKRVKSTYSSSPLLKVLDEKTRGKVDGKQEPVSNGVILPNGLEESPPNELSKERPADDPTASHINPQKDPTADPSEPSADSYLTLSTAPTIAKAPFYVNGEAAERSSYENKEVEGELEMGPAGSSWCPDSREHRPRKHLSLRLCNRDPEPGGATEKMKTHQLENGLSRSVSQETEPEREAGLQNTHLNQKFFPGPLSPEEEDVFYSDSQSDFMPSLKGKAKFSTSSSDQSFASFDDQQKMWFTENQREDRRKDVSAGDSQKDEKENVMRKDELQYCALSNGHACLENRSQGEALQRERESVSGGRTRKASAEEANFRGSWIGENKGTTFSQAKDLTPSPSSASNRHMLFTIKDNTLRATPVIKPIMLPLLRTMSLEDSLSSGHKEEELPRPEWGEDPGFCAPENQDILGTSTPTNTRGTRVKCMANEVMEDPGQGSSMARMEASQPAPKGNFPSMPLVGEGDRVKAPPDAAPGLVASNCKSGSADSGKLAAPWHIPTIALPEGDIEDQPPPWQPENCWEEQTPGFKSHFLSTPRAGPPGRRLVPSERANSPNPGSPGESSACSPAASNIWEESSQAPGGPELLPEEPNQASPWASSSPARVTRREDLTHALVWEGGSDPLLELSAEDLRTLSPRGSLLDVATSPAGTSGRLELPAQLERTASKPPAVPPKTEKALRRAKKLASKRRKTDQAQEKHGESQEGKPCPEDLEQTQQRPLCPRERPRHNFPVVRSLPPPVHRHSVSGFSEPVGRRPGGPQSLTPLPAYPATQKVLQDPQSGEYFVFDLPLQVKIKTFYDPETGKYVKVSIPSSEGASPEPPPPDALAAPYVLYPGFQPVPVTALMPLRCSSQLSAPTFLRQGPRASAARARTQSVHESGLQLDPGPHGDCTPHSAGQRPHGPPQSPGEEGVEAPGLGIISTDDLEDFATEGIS
UniProt Q96SN8: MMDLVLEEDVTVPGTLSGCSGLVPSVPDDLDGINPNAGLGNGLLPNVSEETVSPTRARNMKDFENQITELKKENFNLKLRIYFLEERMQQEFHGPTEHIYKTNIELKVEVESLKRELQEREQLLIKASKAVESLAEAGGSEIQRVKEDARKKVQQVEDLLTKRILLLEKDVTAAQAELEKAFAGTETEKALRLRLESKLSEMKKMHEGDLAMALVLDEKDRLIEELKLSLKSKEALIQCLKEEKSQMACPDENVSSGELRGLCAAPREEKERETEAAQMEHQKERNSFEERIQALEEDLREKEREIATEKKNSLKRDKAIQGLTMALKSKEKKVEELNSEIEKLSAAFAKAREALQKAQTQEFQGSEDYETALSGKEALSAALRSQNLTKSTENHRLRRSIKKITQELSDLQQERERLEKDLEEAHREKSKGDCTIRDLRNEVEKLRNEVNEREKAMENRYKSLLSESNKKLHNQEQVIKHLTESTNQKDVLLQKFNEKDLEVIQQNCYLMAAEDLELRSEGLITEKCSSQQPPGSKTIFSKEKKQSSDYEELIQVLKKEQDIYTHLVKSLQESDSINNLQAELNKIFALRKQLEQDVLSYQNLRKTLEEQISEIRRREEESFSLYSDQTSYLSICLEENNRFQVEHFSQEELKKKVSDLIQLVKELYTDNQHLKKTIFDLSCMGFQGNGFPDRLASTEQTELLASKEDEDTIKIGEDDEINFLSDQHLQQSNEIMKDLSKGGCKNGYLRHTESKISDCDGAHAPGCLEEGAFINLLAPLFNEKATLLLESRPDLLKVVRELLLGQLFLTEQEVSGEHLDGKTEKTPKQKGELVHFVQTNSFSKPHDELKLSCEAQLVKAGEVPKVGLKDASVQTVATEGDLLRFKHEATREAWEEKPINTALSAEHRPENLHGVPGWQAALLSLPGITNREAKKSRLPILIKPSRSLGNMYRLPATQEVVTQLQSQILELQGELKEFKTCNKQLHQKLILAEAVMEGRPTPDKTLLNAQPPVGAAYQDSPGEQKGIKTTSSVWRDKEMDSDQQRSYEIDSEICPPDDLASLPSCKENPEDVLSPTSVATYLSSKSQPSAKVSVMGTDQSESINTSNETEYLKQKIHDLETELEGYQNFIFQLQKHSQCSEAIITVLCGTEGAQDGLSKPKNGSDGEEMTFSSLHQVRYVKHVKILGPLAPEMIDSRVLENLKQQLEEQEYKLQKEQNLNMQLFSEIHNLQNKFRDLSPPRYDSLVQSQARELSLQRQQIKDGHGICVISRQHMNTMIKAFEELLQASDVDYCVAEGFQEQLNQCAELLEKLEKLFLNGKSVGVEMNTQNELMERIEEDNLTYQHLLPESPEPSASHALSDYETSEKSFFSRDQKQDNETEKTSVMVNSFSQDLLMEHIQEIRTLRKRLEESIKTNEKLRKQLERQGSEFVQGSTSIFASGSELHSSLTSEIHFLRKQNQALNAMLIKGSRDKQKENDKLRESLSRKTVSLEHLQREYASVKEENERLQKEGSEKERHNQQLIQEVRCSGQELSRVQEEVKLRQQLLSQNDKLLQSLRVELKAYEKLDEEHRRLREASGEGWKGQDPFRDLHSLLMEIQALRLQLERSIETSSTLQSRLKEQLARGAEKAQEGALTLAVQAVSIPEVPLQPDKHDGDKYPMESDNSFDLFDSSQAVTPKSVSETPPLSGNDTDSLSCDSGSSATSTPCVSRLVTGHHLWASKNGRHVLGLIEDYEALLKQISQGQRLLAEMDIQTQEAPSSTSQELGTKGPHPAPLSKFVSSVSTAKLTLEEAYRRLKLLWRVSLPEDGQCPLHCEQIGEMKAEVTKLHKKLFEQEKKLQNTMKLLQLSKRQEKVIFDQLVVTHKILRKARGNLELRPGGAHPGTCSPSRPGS
UniProt P00751, whole entry, looked up: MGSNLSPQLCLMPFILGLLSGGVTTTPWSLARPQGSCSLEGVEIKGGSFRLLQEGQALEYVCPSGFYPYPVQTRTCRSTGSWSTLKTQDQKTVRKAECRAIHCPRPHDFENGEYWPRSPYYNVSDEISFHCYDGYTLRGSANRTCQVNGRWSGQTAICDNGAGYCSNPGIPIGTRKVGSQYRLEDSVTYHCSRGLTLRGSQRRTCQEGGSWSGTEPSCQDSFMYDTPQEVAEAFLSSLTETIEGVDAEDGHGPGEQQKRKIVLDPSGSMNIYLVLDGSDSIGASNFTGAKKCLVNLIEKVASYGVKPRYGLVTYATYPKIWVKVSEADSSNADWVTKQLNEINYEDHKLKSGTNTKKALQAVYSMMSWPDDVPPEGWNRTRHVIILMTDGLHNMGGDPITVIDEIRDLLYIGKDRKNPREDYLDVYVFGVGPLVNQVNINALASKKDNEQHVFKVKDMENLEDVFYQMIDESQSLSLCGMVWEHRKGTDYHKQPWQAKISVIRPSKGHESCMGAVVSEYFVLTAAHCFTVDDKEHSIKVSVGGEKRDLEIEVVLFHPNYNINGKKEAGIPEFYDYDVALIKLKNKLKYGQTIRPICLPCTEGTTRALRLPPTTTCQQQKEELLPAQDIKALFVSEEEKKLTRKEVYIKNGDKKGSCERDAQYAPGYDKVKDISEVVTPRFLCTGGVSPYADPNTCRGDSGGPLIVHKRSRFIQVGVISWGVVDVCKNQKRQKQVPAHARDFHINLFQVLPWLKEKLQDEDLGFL
UniProt Q9BS16: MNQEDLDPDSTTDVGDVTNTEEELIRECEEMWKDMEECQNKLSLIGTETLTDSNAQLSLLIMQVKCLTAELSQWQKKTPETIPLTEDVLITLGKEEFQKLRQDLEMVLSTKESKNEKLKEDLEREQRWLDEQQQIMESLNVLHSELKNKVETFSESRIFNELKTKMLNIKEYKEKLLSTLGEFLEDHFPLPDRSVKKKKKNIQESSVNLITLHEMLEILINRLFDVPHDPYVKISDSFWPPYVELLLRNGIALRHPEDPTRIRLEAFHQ
UniProt Q8N2Z9: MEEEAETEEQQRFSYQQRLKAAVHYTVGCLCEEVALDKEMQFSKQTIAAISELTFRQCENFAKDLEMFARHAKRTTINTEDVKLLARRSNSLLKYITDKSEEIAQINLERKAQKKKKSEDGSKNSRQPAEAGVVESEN

[1] = compound: Cc1cccc(CC(=O)N2CCc3c2ccc(-c2cn(C)c4ncnc(N)c24)c3F)n1
Summary of the method: as §1

dasatinib = compound: Cc1nc(Nc2ncc(C(=O)Nc3c(C)cccc3Cl)s2)cc(N2CCN(CCO)CC2)n1 [dasatinib]
Summary of the method: as §1

[2] = compound: Cn1cc(-c2ccc3c(c2)CCN3C(=O)Cc2cccc(C(F)(F)F)c2)c2c(N)ncnc21
Summary of the method: as §1

tipifarnib = compound: Cn1cncc1[C@@](N)(c1ccc(Cl)cc1)c1ccc2c(c1)c(-c1cccc(Cl)c1)cc(=O)n2C [tipifarnib]
Summary of the method: as §1

mubritinib = compound: FC(F)(F)c1ccc(/C=C/c2nc(COc3ccc(CCCCn4ccnn4)cc3)co2)cc1 [mubritinib]
Summary of the method: as §1

[3] = compound: NC(=O)Nc1cc(-c2cccc(F)c2)sc1C(=O)N[C@H]1CCCNC1
Summary of the method: as §1

[4] = compound: NC(=O)c1cnc(N[C@@H]2CCCC[C@@H]2N)nc1Nc1cccc(-n2nccn2)c1
Summary of the method: as §1

[5] = compound: NC1(c2ccc(-c3nc4ccn5c(=O)[nH]nc5c4cc3-c3ccccc3)cc2)CCC1
Summary of the method: as §1

[6] = compound: NCC(=O)Nc1ccc(-n2nc(C(F)(F)F)cc2-c2ccc3c(ccc4ccccc43)c2)cc1
Summary of the method: as §1

entinostat = compound: Nc1ccccc1NC(=O)c1ccc(CNC(=O)OCc2cccnc2)cc1 [entinostat]
Summary of the method: as §1

vorinostat = compound: O=C(CCCCCCC(=O)Nc1ccccc1)NO [vorinostat]
Summary of the method: as §1

citarinostat = compound: O=C(CCCCCCNC(=O)c1cnc(N(c2ccccc2)c2ccccc2Cl)nc1)NO [citarinostat]
Summary of the method: as §1

silmitasertib = compound: O=C(O)c1ccc2c(c1)nc(Nc1cccc(Cl)c1)c1ccncc12 [silmitasertib]
Summary of the method: as §1

[7] = compound: O=C1NC(=O)C(c2cnc3ccccn23)=C1c1cn2c3c(cc(F)cc13)CN(C(=O)N1CCCCC1)CC2
Summary of the method: as §1

[8] = compound: c1cc(OCCN2CCCCC2)cc(-c2n[nH]c3ccc(-c4nnc[nH]4)cc23)c1
Summary of the method: as §1

nilotinib = compound: Cc1cn(-c2cc(NC(=O)c3ccc(C)c(Nc4nccc(-c5cccnc5)n4)c3)cc(C(F)(F)F)c2)cn1 [nilotinib]
Summary of the method: as §1

[9] = compound: Cc1nc(Nc2n[nH]c3c2CN(C(=O)N[C@H](CN(C)C)c2ccccc2)C3(C)C)c2sccc2n1
Summary of the method: as §1

[10] = compound: Cc1ncc(-c2ccnc(Nc3ccc(S(C)(=O)=O)cc3)n2)n1C(C)C
Summary of the method: as §1

[11] = compound: Cn1cc(-c2ccc3nnc(C(F)(F)c4ccc5ncccc5c4)n3n2)cn1
Summary of the method: as §1

Measured: log2 fold change

CDK17 isoform 2 (UniProt Q00537)
inactive: bafetinib 0.117 | [1] 0.039 | dasatinib -0.171 | [2] -0.07 | tipifarnib 0.037 | mubritinib -0.04 | [3] -0.066 | [4] -0.258 | [5] -0.04 | [6] -0.074 | entinostat 0.035 | vorinostat -0.114 | citarinostat -0.245 | silmitasertib 0.088 | [7] 0.321 | [8] -0.083

CEP128 (UniProt Q6ZU80)
inactive: bafetinib -0.186 | dasatinib 0.046 | [2] -0.026 | tipifarnib -0.016 | mubritinib 0.143 | [3] -0.182 | [4] -0.029 | [5] 0.095 | [6] -0.234 | entinostat -0.112 | citarinostat -0.087 | silmitasertib -0.191 | [8] -0.068

CDK2AP2 (UniProt O75956)
inactive: bafetinib 0 | nilotinib 0.04 | [9] 0.028 | [10] -0.063 | [2] -0.022 | [11] -0.039 | mubritinib 0.028 | [4] -0.05 | [5] 0.14 | citarinostat 0.009 | silmitasertib -0.094 | [7] -0.062 | [8] -0.1

CDS1 (UniProt Q92903)
inactive: bafetinib -0.008 | dasatinib 0.019 | [2] 0.14 | mubritinib 0.107 | [5] 0.039 | silmitasertib 0.061 | [7] 0.055

CEP170B (UniProt Q9Y4F5)
inactive: bafetinib 0.01 | [1] -0.077 | dasatinib -0.001 | [11] 0.064 | mubritinib -0.104 | [3] 0.019 | [4] 0.022 | [5] -0.002 | [6] 0.033 | entinostat 0.029 | vorinostat -0.021 | citarinostat -0.062 | silmitasertib -0.031 | [7] 0.082 | [8] -0.294

CDK2 (UniProt P24941)
inactive: bafetinib -0.038 | [1] -0.019 | nilotinib -0.006 | dasatinib 0.052 | [2] 0 | [11] -0.002 | tipifarnib 0 | mubritinib 0.039 | [3] 0.016 | [4] -0.037 | [5] -0.062 | [6] -0.023 | entinostat -0.002 | vorinostat 0.012 | citarinostat 0.022 | silmitasertib -0.065 | [7] -0.112

CDK4 (UniProt P11802)
inactive: bafetinib 0.022 | nilotinib -0.121 | [9] -0.042 | dasatinib -0.056 | [10] 0.031 | [2] -0.084 | [11] -0.117 | tipifarnib 0.046 | mubritinib 0.054 | [3] 0.015 | [4] -0.293 | [5] -0.074 | [6] 0.02 | entinostat -0.006 | citarinostat 0.076 | silmitasertib 0.193 | [7] 0.184 | [8] 0.005

CDC42EP2 (UniProt O14613)
inactive: bafetinib -0.001 | [3] -0.103 | entinostat 0.15 | [7] 0.018

CENPP (UniProt Q6IPU0)
inactive: bafetinib -0.028 | [1] 0.075 | nilotinib -0.025 | [9] -0.02 | dasatinib -0.034 | [10] 0.025 | [2] 0.054 | [11] -0.121 | tipifarnib -0.11 | mubritinib -0.04 | [5] -0.232 | vorinostat 0.368 | silmitasertib -0.118 | [7] -0.01

CENPO (UniProt Q9BU64)
inactive: bafetinib -0.002 | nilotinib -0.439 | [9] -0.358 | dasatinib -0.08 | [10] 0.169 | [2] -0.234 | [11] 0.161 | tipifarnib 0.057 | mubritinib -0.2 | [3] 0.121 | [4] -0.033 | [5] 0.245 | [6] 0.029 | entinostat -0.23 | citarinostat -0.029 | silmitasertib 0.177 | [7] -0.075 | [8] -0.077

CENPE (UniProt Q02224)
inactive: bafetinib 0.143 | [1] 0.069 | dasatinib -0.35 | [2] 0.14 | [11] -0.123 | tipifarnib -0.033 | [3] 0.127 | [4] 0.731 | [6] 0.114 | entinostat -0.153 | vorinostat -0.238

CEP250 (UniProt Q9BV73)
inactive: bafetinib -0.438 | nilotinib 0.073 | [9] 0.013 | dasatinib -0.092 | [10] 0.057 | [2] -0.033 | [11] 0.021 | tipifarnib -0.119 | mubritinib 0.099 | [3] -0.042 | [5] 0.028 | [6] -0.071 | entinostat -0.123 | citarinostat 0.085 | silmitasertib -0.048 | [7] 0.049 | [8] -0.329

Reprinted from the listing (four entries):
CDK17 isoform 2 (UniProt Q00537)
inactive: bafetinib 0.117 | [1] 0.039 | dasatinib -0.171 | [2] -0.07 | tipifarnib 0.037 | mubritinib -0.04 | [3] -0.066 | [4] -0.258 | [5] -0.04 | [6] -0.074 | entinostat 0.035 | vorinostat -0.114 | citarinostat -0.245 | silmitasertib 0.088 | [7] 0.321 | [8] -0.083

CEP128 (UniProt Q6ZU80)
inactive: bafetinib -0.186 | dasatinib 0.046 | [2] -0.026 | tipifarnib -0.016 | mubritinib 0.143 | [3] -0.182 | [4] -0.029 | [5] 0.095 | [6] -0.234 | entinostat -0.112 | citarinostat -0.087 | silmitasertib -0.191 | [8] -0.068

CDK2AP2 (UniProt O75956)
inactive: bafetinib 0 | nilotinib 0.04 | [9] 0.028 | [10] -0.063 | [2] -0.022 | [11] -0.039 | mubritinib 0.028 | [4] -0.05 | [5] 0.14 | citarinostat 0.009 | silmitasertib -0.094 | [7] -0.062 | [8] -0.1

CDS1 (UniProt Q92903)
inactive: bafetinib -0.008 | dasatinib 0.019 | [2] 0.14 | mubritinib 0.107 | [5] 0.039 | silmitasertib 0.061 | [7] 0.055

Continued:

CHIC1 (UniProt Q5VXU3)
inactive: bafetinib 0.038 | [1] 0.071 | nilotinib -0.161 | [9] -0.054 | dasatinib 0.019 | [10] 0.001 | [11] 0.166 | tipifarnib -0.108 | mubritinib 0.083 | [3] -0.22 | [4] -0.088 | [5] -0.286 | entinostat -0.127 | vorinostat 0.111 | citarinostat -0.04 | silmitasertib 0.15 | [7] 0.026 | [8] -0.032

CEBPB (UniProt P17676)
inactive: bafetinib -0.017 | [1] -0.093 | nilotinib 0.013 | [9] 0.047 | dasatinib 0.113 | [10] -0.013 | [2] -0.004 | [11] -0.023 | tipifarnib 0.032 | mubritinib -0.047 | [4] -0.158 | [5] 0.028 | vorinostat -0.345 | citarinostat -0.092 | silmitasertib 0.042 | [7] 0.159 | [8] -0.056

CDK8 (UniProt P49336)
inactive: bafetinib 0.109 | [1] 0.014 | dasatinib 0.067 | [2] 0.057 | [11] 0.018 | tipifarnib 0 | mubritinib 0.01 | [3] -0.038 | [4] 0.011 | [5] 0.036 | [6] 0.014 | entinostat -0.152 | vorinostat 0.038 | citarinostat -0.002 | silmitasertib 0.175 | [7] 0.036 | [8] -0.019

CDC42SE1 (UniProt Q9NRR8)
inactive: bafetinib -0.37 | nilotinib 0.055 | [9] 0.055 | dasatinib -0.022 | [10] -0.155 | [2] 0.107 | [11] -0.002 | tipifarnib -0.01 | mubritinib -0.065 | [3] -0.244 | [4] 0.055 | [5] -0.065 | [6] -0.002 | entinostat -0.042 | citarinostat -0.048 | silmitasertib 0.128 | [7] -0.065 | [8] -0.103

CEP120 (UniProt Q8N960)
inactive: bafetinib -0.092 | [2] 0.12 | [11] -0.149 | tipifarnib 0.096 | mubritinib 0.048 | [3] -0.483 | [4] -0.082 | [5] -0.386 | [6] -0.025 | entinostat 0.094 | silmitasertib -0.008 | [7] -0.162

CEFIP (UniProt Q711Q0)
inactive: bafetinib 0.156 | tipifarnib 0.038 | mubritinib 0 | [4] -0.015 | [5] -0.005 | [6] -0.187 | silmitasertib 0.044 | [7] 0.098

CDK5RAP2 (UniProt Q96SN8)
inactive: bafetinib 0.095 | [6] 0 | [7] -0.11

CENPH (UniProt Q9H3R5)
inactive: bafetinib -0.03 | nilotinib 0.001 | [9] 0.014 | dasatinib -0.337 | [10] 0.029 | [2] -0.065 | [11] -0.089 | tipifarnib -0.096 | mubritinib -0.046 | [3] -0.039 | [4] -0.062 | [5] -0.006 | [6] 0.006 | entinostat -0.01 | citarinostat -0.029 | silmitasertib -0.082 | [7] 0.014 | [8] -0.299

CFB (UniProt P00751)
inactive: bafetinib -0.125 | [1] -0.293 | nilotinib -0.062 | [9] 0.075 | dasatinib 0.072 | [10] 0.188 | [2] 0.504 | [11] -0.016 | mubritinib -0.264 | [3] -0.398 | [5] 0.053 | [6] 0.069 | entinostat -0.277 | vorinostat -0.057 | citarinostat -0.052 | silmitasertib 0.101 | [8] 0.696

CENPK (UniProt Q9BS16)
inactive: bafetinib 0.247 | nilotinib 0.07 | [9] -0.207 | [10] -0.047 | [2] 0.014 | tipifarnib 0.087 | [6] 0.071 | citarinostat 0.117 | [8] 0.066

CENPS (UniProt Q8N2Z9)
inactive: bafetinib -0.044 | [1] 0.124 | nilotinib -0.075 | [9] -0.003 | dasatinib -0.127 | [10] -0.017 | [2] 0.082 | tipifarnib 0.006 | mubritinib 0.053 | [3] -0.054 | [4] 0.129 | [5] -0.036 | [6] -0.064 | entinostat 0.025 | vorinostat 0.031 | citarinostat 0.003 | silmitasertib -0.071 | [7] 0.008 | [8] 0.014

Reference: the supplement of paper PMC10849652
